Drawing on patent US20250154277A1 (CONCEPT TO MEDICINE BIOTECH, published 2025), this text covers binding for five molecules.

Experiment [1] deals with T1, human 5T4 expressed on cells (human, UniProt Q13641 32-420).
T1 construct: whole, on cells; also called CHOK1-hu5T4; CHO-K1-expressing human 5T4
T1 sequence (looked up): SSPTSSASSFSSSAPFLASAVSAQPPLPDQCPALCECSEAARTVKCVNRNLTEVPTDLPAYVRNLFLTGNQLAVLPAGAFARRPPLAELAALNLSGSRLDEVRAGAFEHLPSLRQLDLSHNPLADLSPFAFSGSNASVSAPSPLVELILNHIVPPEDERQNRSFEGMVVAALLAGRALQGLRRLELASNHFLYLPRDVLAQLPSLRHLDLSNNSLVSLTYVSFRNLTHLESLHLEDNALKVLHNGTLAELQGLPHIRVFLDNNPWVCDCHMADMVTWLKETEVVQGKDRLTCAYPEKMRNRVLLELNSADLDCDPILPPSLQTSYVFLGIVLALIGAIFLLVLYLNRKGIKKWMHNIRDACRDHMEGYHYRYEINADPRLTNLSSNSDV
Kind of experiment: flow cytometry, CHOK1-hu5T4 cells.

Experiment [2] has as its target T1, human 5T4 expressed on cells. Kind of experiment: flow cytometry, CHOK1-hu5T4 cells (FIG. 18).

Residue numbers refer to the chain shown, from its start. Results are given in words; binding and its absence hold for the method and conditions named. Some binding calls cover weakened binding; strength is not graded here.

B1: trispecific antibody with anti-5T4 portion of Hu286B4-3-P1 (protein, not shown: a dimerising Fc or GST; small tags and cut ends)
VH: EVQLQESGPGLVKPSDTLSLTCAVSGYSISNNYYWNWIRQPPGKGLEWIGYITYDASNNYNPSLKNRVTMSRDTSKNQFSLKLSSVTAVDTAVYYCARGGGQLRFDYWGQGTTVTVSS
VL: DIQMTQSPSSLSASVGDRVTITCKASQSVSNEVTWYQQKPGKAPKMLIYYASNRYTGVPDRFSGSGYGTDFTFTISSLQPEDIATYYCQQDYSSPWTFGGGTKVEIK
With B1, the binding entry in experiment [1] and in experiment [2] was “binds” each time.

B2: trispecific antibody with anti-5T4 portion of Hu286B4-15-P1 (protein, not shown: a dimerising Fc or GST; small tags and cut ends)
VH: B1 VH with I49M, V68I, M70V
VL: B1 VL with D1S, Q3V, A43S, Y87F
Take B2: the binding result in experiment [1] and in experiment [2] was “binds” throughout.

B3: trispecific antibody with anti-5T4 portion of Hu286B4-8-P1 (protein, not shown: a dimerising Fc or GST; small tags and cut ends)
VH: B1 VH with V68I
VL: B1 VL
Regarding B3, the binding result in experiment [1] and in experiment [2] was “binds” in each case.

B4: trispecific antibody with anti-5T4 portion of Hu286B4-5-P1 (protein, not shown: a dimerising Fc or GST; small tags and cut ends)
VH: B1 VH
VL: B1 VL with D1S, Q3V, A43S, Y87F
Regarding B4, the binding result in experiment [1] and in experiment [2] was “binds” in each case.

B5: Hu393E9-53-P2 triAb (protein, not shown: a dimerising Fc or GST; small tags and cut ends)
VH: EVQLVESGGGLVQPGRSLRLSCTASGFTFTDYYMSWVRQAPGKGLEWVGFIRNKGNGYTTEYSASVKGRFTISRDNSKSILYLQMNSLKTEDTAVYYCARYRGNPHYAMDYWGQGTLVTVSS
VL: DIQLTQSPSSLSASVGDRVTITCRASESVEFYGTSFLQWYQQKPGKAPKLLIYGASNVESGVPSRFSGSGSGTDFTLTISSLQPEDIATYFCQQSRKVPSTFGGGTKVEIK
Take B5: the binding result in experiment [1] is recorded as “binds”.
